These are yes or no findings as the source states them, for the method shown. In cells and extracts the contact can be indirect. Some results given as binding are weak or reduced against the parent protein; the word gives no strength. Where a sequence is shown, tags or fusion partners need not be part of it.
T1: HA-FBXL8 (full-length human Fbxl8 with HA-tag) (human) (UniProt Q96CD0)
T1 sequence: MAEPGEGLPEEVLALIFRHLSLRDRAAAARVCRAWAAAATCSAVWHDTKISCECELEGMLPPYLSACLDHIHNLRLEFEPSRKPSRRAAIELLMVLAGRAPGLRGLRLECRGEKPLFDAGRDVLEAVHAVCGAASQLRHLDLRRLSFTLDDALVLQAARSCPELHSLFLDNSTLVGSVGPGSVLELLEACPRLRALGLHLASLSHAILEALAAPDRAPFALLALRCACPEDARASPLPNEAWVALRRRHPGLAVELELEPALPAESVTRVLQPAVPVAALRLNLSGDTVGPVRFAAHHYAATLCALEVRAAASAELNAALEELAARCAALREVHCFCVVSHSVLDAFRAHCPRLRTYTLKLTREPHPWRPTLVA

Amino acid sequences for entries named in this document (tags omitted). A change or cut given only in a name is not applied to a line headed by its entry. Residues count along the entry.
UniProt O95863: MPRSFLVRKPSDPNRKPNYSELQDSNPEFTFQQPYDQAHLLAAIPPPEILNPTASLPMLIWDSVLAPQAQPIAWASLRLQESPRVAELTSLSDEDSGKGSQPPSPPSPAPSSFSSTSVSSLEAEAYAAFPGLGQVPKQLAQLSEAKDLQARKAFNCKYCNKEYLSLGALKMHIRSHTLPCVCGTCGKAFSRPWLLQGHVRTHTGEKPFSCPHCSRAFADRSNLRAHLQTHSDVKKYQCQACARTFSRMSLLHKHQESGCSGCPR
Flag-Snail1 C-terminal fragment (Flag-CT: amino acids 152-264): residues 152-264 of O95863

B1: HA-FBXL8 (full-length human Fbxl8 with HA-tag) (protein, UniProt Q96CD0 1-374)
chain: T1 sequence

Tests used:
[1] = target: T1, HA-FBXL8 (full-length human Fbxl8 with HA-tag) (human); test: co-IP; HEK293T cells transiently transfected with HA-FBXL8 and Flag-Snail1, 48 h; lysates precleared with Protein A/G-agarose, incubated with anti-Flag or anti-HA antibody (control IgG) at 4 °C overnight; immunoblot
Flag-Snail1 = Flag-Snail1 (UniProt O95863); test: as above
[2] = target: Flag-Snail1 C-terminal fragment (Flag-CT: amino acids 152-264) (UniProt O95863); test: co-IP; Flag-Snail1 fragments (Flag-CT 152-264, Flag-NT 1-151) with FBXL8; cell line and precipitating antibody not stated

Row | Molecule | binding [1] | binding (Flag-Snail1) | binding [2]
1 | Flag-Snail1 (from UniProt O95863 1-264) | binds |  | 
2 | B1 |  | binds | binds

Reference: paper PMC11016067
